Data: US8759564B2, “Amidoacetonitrile compounds having pesticidal activity” (Novartis AG, priority 2009, dated 2014)
Some results were stated once for a whole list of compounds, not compound by compound.

Key:
[1] = system: Trichostrongylus colubriformis; test: Activity in vitro (LDA test), egg hatch and larval development; type: cell-based; settings: 0.1 ppm
Haemonchus contortus = test: as above; type: cell-based; settings: 0.1 ppm

Row | Compound | efficacy (EC90) [1] | efficacy (EC90) (Haemonchus contortus)
1 | C[C@](C#N)(COc1cc(C#N)ccc1Oc1ccc(OC(F)(F)F)cc1Cl)NC(=O)c1ccc(OC(F)(F)F)cc1 [Compound No. 1.2, N-[(1S)-1-cyano-2-(5-cyano-2-{2-chloro-4-trifluoromethoxyphenoxy}-phenoxy)-1-methylethyl]-4-trifluoromethoxybenzamide] | more than 90% | more than 90%
2 | CC(C#N)(COc1cc(C#N)ccc1Oc1ccc(OC(F)(F)F)cc1Cl)NC(=O)c1ccc(OC(F)(F)F)cc1 (racemic) [Compound No. 1.1, N-[1-cyano-1-methyl-2-(5-cyano-2-{2-chloro-4-trifluoromethoxy-phenoxy}-phenoxy)-ethyl]-4-trifluoromethoxybenzamide] | more than 90% | more than 90%
